Source: the supplement of paper PMC10849652
This is one part of the list.

Chains of the proteins cited; added tags and fusions are not shown. Lines headed by an entry give the natural chain unless they say otherwise; changes in a name come on top.
UniProt Q6P087: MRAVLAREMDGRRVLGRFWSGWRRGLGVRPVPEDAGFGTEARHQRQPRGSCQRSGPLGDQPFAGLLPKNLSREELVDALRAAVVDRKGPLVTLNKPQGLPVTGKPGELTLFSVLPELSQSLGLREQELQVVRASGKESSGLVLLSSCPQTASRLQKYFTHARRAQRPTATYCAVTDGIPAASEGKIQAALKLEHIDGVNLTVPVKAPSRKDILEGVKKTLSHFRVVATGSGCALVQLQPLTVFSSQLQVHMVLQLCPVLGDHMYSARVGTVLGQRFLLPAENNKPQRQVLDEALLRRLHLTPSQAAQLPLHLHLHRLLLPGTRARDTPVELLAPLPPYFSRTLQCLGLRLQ
UniProt Q9H4P4: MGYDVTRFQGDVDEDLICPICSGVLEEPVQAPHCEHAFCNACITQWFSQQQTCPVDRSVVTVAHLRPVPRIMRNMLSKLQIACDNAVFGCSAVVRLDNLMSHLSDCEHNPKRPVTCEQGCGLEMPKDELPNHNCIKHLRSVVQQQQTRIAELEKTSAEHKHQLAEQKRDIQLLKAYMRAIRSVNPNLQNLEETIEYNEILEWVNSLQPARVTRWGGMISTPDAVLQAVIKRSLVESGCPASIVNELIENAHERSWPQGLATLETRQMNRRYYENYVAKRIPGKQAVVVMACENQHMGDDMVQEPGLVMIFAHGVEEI
UniProt Q9BY78: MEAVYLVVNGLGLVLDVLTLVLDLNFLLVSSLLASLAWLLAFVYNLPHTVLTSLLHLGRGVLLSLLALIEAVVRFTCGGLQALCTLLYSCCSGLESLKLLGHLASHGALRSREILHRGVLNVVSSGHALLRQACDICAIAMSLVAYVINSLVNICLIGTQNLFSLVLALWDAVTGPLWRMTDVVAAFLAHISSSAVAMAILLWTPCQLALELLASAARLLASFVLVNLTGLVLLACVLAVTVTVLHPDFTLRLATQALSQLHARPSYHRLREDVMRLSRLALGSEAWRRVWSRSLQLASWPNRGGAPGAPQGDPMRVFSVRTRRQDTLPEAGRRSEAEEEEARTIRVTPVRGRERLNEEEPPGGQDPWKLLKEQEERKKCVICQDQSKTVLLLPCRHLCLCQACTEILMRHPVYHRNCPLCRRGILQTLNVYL
UniProt Q86UA6: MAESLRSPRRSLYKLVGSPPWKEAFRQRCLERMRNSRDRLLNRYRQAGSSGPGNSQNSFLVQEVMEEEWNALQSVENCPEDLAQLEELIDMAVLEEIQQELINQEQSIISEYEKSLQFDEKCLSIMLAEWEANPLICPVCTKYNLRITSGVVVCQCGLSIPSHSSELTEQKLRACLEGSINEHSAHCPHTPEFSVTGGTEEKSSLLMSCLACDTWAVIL
UniProt Q96AT9: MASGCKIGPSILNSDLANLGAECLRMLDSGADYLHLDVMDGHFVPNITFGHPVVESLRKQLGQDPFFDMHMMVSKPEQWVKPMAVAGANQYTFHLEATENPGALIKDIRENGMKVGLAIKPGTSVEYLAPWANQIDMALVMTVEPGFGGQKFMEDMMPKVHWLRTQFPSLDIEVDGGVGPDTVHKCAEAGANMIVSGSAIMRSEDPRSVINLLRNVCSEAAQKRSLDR
UniProt Q96P16: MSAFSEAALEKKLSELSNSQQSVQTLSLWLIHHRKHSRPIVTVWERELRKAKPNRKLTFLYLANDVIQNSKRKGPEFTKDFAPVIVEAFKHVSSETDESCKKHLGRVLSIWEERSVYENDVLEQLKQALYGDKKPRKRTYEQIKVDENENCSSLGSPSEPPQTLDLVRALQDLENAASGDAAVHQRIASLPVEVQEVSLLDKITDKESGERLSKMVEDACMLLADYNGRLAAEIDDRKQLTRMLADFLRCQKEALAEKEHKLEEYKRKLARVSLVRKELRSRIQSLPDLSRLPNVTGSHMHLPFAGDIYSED
UniProt O75582, whole entry, looked up: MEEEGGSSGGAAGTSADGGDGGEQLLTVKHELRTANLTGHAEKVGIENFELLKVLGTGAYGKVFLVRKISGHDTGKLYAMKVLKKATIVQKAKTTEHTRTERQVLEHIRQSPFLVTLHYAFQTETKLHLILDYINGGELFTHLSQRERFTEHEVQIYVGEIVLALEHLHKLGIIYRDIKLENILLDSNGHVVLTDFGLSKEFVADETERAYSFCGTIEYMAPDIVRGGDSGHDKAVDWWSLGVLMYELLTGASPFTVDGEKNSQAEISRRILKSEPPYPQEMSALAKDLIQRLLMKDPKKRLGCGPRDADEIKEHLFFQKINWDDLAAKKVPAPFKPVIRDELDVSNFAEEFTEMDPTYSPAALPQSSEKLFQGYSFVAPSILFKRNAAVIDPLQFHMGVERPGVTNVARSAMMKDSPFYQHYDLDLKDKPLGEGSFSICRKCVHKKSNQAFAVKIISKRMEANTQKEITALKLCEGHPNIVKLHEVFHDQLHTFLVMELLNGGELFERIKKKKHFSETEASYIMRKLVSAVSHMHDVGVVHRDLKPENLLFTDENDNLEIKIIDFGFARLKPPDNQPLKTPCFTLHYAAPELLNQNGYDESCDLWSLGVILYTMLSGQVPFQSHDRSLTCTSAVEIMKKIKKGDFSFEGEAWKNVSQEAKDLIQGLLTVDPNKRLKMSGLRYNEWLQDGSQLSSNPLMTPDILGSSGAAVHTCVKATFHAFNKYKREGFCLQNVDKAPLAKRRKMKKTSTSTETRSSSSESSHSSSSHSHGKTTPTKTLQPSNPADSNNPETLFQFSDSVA
UniProt P60602: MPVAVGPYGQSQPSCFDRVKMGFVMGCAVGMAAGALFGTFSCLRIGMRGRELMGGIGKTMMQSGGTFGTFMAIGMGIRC
UniProt Q5VT52: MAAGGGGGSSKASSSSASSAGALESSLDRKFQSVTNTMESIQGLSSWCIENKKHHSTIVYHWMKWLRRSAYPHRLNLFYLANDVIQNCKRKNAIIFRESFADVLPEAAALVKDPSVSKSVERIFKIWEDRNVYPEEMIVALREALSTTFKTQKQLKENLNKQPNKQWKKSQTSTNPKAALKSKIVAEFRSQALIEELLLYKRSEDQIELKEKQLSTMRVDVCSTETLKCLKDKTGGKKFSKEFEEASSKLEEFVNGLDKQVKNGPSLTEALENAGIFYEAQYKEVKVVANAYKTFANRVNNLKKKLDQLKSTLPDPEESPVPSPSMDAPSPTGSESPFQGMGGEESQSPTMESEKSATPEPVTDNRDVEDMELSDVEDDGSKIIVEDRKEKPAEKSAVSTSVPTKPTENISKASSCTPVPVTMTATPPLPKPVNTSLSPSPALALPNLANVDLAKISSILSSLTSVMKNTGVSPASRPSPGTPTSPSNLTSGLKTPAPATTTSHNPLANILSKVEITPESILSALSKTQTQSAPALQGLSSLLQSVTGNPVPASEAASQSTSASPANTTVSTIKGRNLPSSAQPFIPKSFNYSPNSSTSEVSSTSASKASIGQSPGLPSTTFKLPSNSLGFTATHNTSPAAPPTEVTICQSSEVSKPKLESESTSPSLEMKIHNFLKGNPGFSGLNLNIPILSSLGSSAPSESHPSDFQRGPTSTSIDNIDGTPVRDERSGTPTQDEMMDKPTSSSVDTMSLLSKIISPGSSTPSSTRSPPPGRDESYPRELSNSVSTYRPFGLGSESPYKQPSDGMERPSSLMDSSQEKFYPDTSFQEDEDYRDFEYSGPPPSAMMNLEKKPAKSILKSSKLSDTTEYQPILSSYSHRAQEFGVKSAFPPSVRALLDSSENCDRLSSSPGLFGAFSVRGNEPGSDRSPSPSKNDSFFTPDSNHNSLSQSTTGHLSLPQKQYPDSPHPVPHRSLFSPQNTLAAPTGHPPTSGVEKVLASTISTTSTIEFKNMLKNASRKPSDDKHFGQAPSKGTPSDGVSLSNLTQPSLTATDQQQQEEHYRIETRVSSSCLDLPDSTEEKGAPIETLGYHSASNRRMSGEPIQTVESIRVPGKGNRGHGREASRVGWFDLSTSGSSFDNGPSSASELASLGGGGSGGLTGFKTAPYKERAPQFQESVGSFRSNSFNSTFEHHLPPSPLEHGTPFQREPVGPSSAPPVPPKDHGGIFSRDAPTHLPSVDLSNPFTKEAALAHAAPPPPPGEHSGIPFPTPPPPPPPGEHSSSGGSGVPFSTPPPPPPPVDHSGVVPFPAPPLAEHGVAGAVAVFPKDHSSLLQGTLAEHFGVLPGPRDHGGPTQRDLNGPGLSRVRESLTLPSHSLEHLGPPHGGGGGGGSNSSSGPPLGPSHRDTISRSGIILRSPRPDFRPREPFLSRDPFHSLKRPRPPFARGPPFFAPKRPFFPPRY
UniProt Q9H7B2: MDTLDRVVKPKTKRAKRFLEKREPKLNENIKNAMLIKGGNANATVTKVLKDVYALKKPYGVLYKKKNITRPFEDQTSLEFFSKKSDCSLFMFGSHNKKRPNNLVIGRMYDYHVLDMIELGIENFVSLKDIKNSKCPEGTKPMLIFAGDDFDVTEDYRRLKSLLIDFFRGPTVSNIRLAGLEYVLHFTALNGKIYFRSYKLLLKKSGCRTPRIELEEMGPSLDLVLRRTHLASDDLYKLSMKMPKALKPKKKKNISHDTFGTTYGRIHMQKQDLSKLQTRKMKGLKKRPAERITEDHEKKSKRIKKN
UniProt Q92901: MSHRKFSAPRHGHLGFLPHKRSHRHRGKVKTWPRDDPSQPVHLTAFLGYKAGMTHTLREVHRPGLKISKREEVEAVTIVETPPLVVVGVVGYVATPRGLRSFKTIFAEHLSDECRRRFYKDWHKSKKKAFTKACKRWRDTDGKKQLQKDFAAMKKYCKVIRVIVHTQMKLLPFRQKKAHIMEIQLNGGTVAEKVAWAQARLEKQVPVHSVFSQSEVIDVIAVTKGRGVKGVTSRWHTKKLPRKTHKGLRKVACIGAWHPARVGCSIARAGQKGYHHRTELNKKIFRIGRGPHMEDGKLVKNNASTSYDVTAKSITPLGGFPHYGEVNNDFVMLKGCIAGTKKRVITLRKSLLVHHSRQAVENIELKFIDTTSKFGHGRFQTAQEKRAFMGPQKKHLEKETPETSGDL
UniProt Q8IXW5, whole entry, looked up: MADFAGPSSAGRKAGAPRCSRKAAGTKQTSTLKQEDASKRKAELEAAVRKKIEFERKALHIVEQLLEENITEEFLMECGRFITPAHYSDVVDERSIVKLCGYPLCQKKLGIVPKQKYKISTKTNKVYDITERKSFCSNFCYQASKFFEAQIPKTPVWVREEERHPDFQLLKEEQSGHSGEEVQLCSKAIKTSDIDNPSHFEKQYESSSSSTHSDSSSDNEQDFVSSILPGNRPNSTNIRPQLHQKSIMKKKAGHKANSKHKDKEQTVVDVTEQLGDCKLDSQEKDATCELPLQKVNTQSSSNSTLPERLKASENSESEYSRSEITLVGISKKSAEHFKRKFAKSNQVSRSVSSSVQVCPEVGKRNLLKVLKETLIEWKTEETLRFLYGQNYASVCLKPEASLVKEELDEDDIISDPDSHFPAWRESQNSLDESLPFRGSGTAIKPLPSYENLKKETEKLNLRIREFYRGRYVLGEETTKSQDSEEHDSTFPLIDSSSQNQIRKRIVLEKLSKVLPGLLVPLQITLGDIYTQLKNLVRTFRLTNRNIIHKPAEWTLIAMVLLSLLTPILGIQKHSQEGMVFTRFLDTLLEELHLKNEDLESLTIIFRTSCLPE
UniProt P13489: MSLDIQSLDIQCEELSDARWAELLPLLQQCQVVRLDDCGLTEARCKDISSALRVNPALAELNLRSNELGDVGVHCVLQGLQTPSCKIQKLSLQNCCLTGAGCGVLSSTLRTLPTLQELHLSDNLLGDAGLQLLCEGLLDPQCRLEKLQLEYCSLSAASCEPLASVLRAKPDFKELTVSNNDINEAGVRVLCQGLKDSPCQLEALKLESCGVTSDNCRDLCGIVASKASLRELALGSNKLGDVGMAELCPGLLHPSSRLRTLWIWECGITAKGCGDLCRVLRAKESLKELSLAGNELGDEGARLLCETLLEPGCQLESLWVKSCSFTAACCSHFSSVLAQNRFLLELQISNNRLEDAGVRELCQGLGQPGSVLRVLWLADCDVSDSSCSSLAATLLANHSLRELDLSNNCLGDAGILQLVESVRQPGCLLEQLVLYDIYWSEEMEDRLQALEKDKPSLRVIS
UniProt Q9UBS0: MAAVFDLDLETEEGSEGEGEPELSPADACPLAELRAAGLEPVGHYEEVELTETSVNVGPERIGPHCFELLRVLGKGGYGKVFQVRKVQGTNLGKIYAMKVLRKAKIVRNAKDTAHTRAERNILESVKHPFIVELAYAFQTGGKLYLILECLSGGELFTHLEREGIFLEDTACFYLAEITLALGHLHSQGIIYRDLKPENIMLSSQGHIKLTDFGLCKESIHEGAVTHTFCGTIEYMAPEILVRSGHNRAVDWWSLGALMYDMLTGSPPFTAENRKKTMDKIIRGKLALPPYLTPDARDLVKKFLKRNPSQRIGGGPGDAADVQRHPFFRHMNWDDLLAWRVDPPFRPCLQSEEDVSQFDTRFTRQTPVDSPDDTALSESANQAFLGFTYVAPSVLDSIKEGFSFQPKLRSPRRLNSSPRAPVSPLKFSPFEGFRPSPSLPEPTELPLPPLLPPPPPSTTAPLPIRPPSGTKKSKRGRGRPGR

Key:
Experiment in all cases: log2 fold change, soluble protein after heating vs DMSO (PISA); higher = thermal stabilisation; K562 cells, 10 uM, 30 min; active = over 0.2 and 3.5 SD of the protein, either way, in both replicates (recomputed)
filanesib = compound: CON(C)C(=O)N1N=C(c2cc(F)ccc2F)S[C@@]1(CCCN)c1ccccc1 [filanesib]
Summary of the method: (§1)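 K562 cells at 2×10^6 cells/mL were exposed to 10 μM compound for 30 min, then aliquots were heated for 3 min across 48°C-58°C, pooled, and extracted in PBS containing 0.5% NP-40 at 4°C. The supernatant after 21,000xg for 90 min was taken as soluble protein and measured by TMTpro 16plex LC-MS/MS with channel sums equalised. Thermal stability is reported relative to control samples, with values from duplicates. Fold changes are given on a log2 scale.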

idasanutlin = compound: COc1cc(C(=O)O)ccc1NC(=O)[C@@H]1N[C@@H](CC(C)(C)C)[C@](C#N)(c2ccc(Cl)cc2F)[C@H]1c1cccc(Cl)c1F [idasanutlin]
Summary of the method: as §1

[1] = compound: COC1=CC=C(C=C1)CN2C=CC3=C2C=C(C=C3)C(=O)NO
Summary of the method: as §1

zotarolimus = compound: CO[C@H]1C[C@@H]2CC[C@@H](C)[C@@](O)(O2)C(=O)C(=O)N2CCCC[C@H]2C(=O)O[C@H]([C@H](C)C[C@@H]2CC[C@H](n3cnnn3)[C@H](OC)C2)CC(=O)[C@H](C)/C=C(\C)[C@@H](O)[C@@H](OC)C(=O)[C@H](C)C[C@H](C)/C=C/C=C/C=C/1C [zotarolimus]
Summary of the method: as §1

alisertib = compound: COc1cc(Nc2ncc3c(n2)-c2ccc(Cl)cc2C(c2c(F)cccc2OC)=NC3)ccc1C(=O)O [alisertib]
Summary of the method: as §1

[2] = compound: COc1cc2nc(-c3cc(F)ccc3O)nc(N[C@@H]3CNC[C@H]3C(C)(C)O)c2cc1OC
Summary of the method: as §1

[3] = compound: COc1cccc2cc(-c3nc([C@H]4CC[C@H](C(=O)O)CC4)n4ncnc(N)c34)[nH]c12
Summary of the method: as §1

lapatinib = compound: CS(=O)(=O)CCNCc1ccc(-c2ccc3ncnc(Nc4ccc(OCc5cccc(F)c5)c(Cl)c4)c3c2)o1 [lapatinib]
Summary of the method: as §1

pictilisib = compound: CS(=O)(=O)N1CCN(Cc2cc3nc(-c4cccc5[nH]ncc45)nc(N4CCOCC4)c3s2)CC1 [pictilisib]
Summary of the method: as §1

gefitinib = compound: COc1cc2ncnc(Nc3ccc(F)c(Cl)c3)c2cc1OCCCN1CCOCC1 [gefitinib]
Summary of the method: as §1

Measured: log2 fold change

RPS3A (UniProt D6R9B6)
inactive: filanesib 0.228 | idasanutlin 0.079

RREB1 isoform 2 (UniProt Q92766)
inactive: [1] 0.023 | filanesib 0.029 | zotarolimus 0.055 | alisertib -0.019 | [2] 0.014 | [3] 0.045 | lapatinib 0.082 | pictilisib 0.166

RNF34 isoform 2 (UniProt Q969K3)
inactive: [1] -0.113 | zotarolimus 0.071 | idasanutlin 0.051 | alisertib -0.063 | [2] -0.023 | gefitinib -0.16 | [3] -0.101 | lapatinib -0.089 | pictilisib 0.009

RPUSD3 (UniProt Q6P087)
inactive: idasanutlin 0.043 | alisertib -0.066 | [2] -0.012 | gefitinib 0.041 | [3] -0.137 | lapatinib -0.025 | pictilisib -0.149

RPL10 (UniProt F8W7C6)
inactive: filanesib 0.311 | zotarolimus -0.028 | alisertib -0.046 | [2] 0.011 | gefitinib 0.014 | [3] -0.149 | lapatinib -0.06 | pictilisib -0.253

RNF41 (UniProt Q9H4P4)
inactive: idasanutlin -0.031

RPS19 (UniProt P39019)
inactive: [1] 0 | filanesib 0.102 | zotarolimus -0.015 | idasanutlin 0.113 | alisertib -0.114 | [2] -0.024 | gefitinib -0.049 | [3] -0.12 | lapatinib 0.059 | pictilisib -0.137

RPL28 (UniProt P46779)
inactive: [1] -0.132 | filanesib 0.688 | zotarolimus 0.014 | idasanutlin 0.339 | alisertib -0.195 | [2] -0.091 | gefitinib -0.136 | [3] -0.505 | lapatinib 0.323 | pictilisib -0.202

RNF26 (UniProt Q9BY78)
inactive: pictilisib 0.065

RPAIN isoform 8 (UniProt Q86UA6)
inactive: [1] -0.055 | filanesib 0.006 | zotarolimus 0.028 | idasanutlin 0.109 | [2] -0.061 | lapatinib -0.063

RPS7, A0A2R8Y623
inactive: [1] 0.464 | filanesib 0.113 | idasanutlin 0.746 | alisertib 0.344 | gefitinib 0 | [3] -0.198

ROGDI (UniProt Q9GZN7)
inactive: zotarolimus 0.018 | pictilisib -0.046

RPSA (UniProt F8WD59)
inactive: alisertib 2.31 | [3] -0.02

RNF31 (UniProt Q96EP0)
inactive: filanesib 0.044 | gefitinib 0.015 | pictilisib -0.025

RPE (UniProt Q96AT9)
inactive: [1] 0.19 | zotarolimus 0.042 | idasanutlin -0.028 | alisertib 0.072 | [2] -0.092 | gefitinib 0.032 | [3] 0.037 | lapatinib 0

RPRD1A (UniProt Q96P16)
inactive: filanesib 0.115 | idasanutlin -0.117 | pictilisib -0.001

RPS6KA5 (UniProt O75582)
inactive: [1] -0.276 | alisertib -0.076 | [2] -0.185 | [3] 0.131 | lapatinib 0.057

RPL18A (UniProt Q02543)
inactive: [1] -0.161 | filanesib 0.77 | zotarolimus 0.038 | idasanutlin 0.385 | alisertib -0.183 | [2] -0.159 | gefitinib -0.076 | [3] -0.48 | lapatinib 0.434 | pictilisib -0.215

ROMO1 (UniProt P60602)
inactive: filanesib -0.024 | zotarolimus -0.069 | idasanutlin 0.044 | alisertib 0.005 | [2] -0.024 | gefitinib 0.034 | [3] 0.033 | lapatinib -0.079 | pictilisib 0.035

RNFT1 (UniProt Q5M7Z0)
inactive: alisertib -0.342 | [2] -0.163 | gefitinib -0.127 | [3] -0.016 | lapatinib 0.062 | pictilisib 0.046

RPL7L1 (UniProt Q6DKI1)
inactive: [1] -0.321 | gefitinib 0.146 | pictilisib 0.002

RPS16 (UniProt P62249)
inactive: [1] -0.117 | filanesib 0.092 | zotarolimus 0.025 | idasanutlin 0.093 | alisertib -0.167 | [2] -0.027 | gefitinib -0.014 | [3] -0.199 | lapatinib 0.046 | pictilisib -0.162

RNF4 (UniProt P78317)
inactive: filanesib -0.17 | idasanutlin 0.331 | alisertib 0.012 | [2] 0.233 | gefitinib -0.077 | [3] -0.043 | lapatinib 0.043

RPP30 (UniProt Q5VU11)
inactive: [1] 0.005 | gefitinib 0.079 | pictilisib 0.129

RPRD2 (UniProt Q5VT52)
inactive: [1] 0.115 | idasanutlin -0.045 | [2] 0.033 | lapatinib 0.116

RPL34 (UniProt P49207)
inactive: [1] -0.084 | filanesib 0.437 | zotarolimus 0.018 | idasanutlin 0.347 | alisertib -0.221 | [2] -0.188 | gefitinib -0.052 | [3] -0.47 | lapatinib 0.295 | pictilisib -0.239

RPF2 (UniProt Q9H7B2)
inactive: pictilisib -0.01

RPL3L (UniProt Q92901)
inactive: [1] -0.113 | filanesib 0.862 | zotarolimus 0.094 | idasanutlin 0.334 | alisertib -0.186 | [2] -0.155 | gefitinib -0.053 | [3] -0.549 | lapatinib 0.315 | pictilisib -0.118

RRN3 (UniProt Q9NYV6)
inactive: [1] 0.181 | [2] 0.202 | lapatinib 0.191 | pictilisib -0.146

RPL7A (UniProt P62424)
inactive: [1] -0.115 | filanesib 0.796 | zotarolimus 0.107 | idasanutlin 0.362 | alisertib -0.188 | [2] -0.235 | gefitinib -0.036 | [3] -0.457 | lapatinib 0.319 | pictilisib -0.379

RNF40 (UniProt O75150)
inactive: filanesib -0.121 | zotarolimus 0.018 | alisertib 0.265 | [3] 0.287

RPUSD4 (UniProt Q96CM3)
inactive: filanesib 0.398 | zotarolimus -0.018 | idasanutlin 0.12 | alisertib 0.185 | [2] -0.001 | [3] -0.273 | lapatinib 0.049 | pictilisib 0.017

RPS3 (UniProt E9PJN9)
inactive: pictilisib 0.129

RPS6KA3 (UniProt P51812)
inactive: [1] -0.013 | filanesib 0 | zotarolimus 0.033 | idasanutlin -0.008 | [2] -0.221 | gefitinib -0.033 | [3] 0.013 | lapatinib 0.011 | pictilisib -0.011

RPAP2 (UniProt Q8IXW5)
inactive: [1] -0.003 | filanesib -0.008 | zotarolimus 0.101 | idasanutlin -0.098 | pictilisib 0.093

RRP1 (UniProt P56182)
inactive: [1] -0.182 | pictilisib -0.09

RPS27 (UniProt P42677)
inactive: [1] -0.036 | filanesib 0.076 | zotarolimus -0.031 | idasanutlin 0.107 | alisertib 0.044 | [2] 0.07 | gefitinib -0.061 | [3] -0.097 | lapatinib -0.027 | pictilisib -0.065

RNH1 (UniProt P13489)
inactive: [1] 0.101 | filanesib -0.101 | zotarolimus 0.023 | idasanutlin -0.084 | alisertib -0.02 | [2] -0.002 | gefitinib 0.021 | [3] -0.012 | lapatinib 0 | pictilisib 0.051

RPS19 (UniProt M0R2L9)
inactive: idasanutlin -0.034 | alisertib -0.463 | [2] -0.158 | gefitinib 0.375 | [3] -0.331 | lapatinib -0.341

RPS6KB2 (UniProt Q9UBS0)
inactive: [1] -0.075 | zotarolimus -0.068 | alisertib 0.076 | [3] -0.004
